Some of the results follow. Further columns of the screen follow, without active or inactive calls. Compounds called inactive in the main read-out are mostly missing here. The note in brackets gives the kind of curve behind each potency; many fits are weak.
Test: qHTS Assay to Find Inhibitors of Chronic Active B-Cell Receptor Signaling
Conditions: ABC-DLBCL IkBa-CBG/CBR reporter, luminescence ratio (green luciferase fused to IkBa over red control in TMD8 lymphoma cells), 4 h
Outline: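 TMD8 human ABC-DLBCL cells with doxycycline-inducible IκBα–green luciferase fusion and unfused red luciferase, in 0.5% FBS medium; compounds up to 46 uM, 4 h at 37C. Green/red luminescence ratio, filter-overlap corrected, fitted to concentration-response curves.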

[1] = measured here: CBR red luminescence, cell number

Row | SMILES | AC50 [1] | AC50 (measured here: IkBa-CBG green luminescence)
1 | O=C(NCc1ccco1)c1ccc(-c2ccccc2Cl)o1 | 20 µM [falling, single point] | –
2 | COc1ccc(Cl)cc1-n1c(C)cc(C=O)c1C | 6.51 µM [rising, single point] | –
3 | NC(=O)c1ccccc1N/C=C/C(=O)c1ccc(F)cc1 | 2 µM [falling, full curve] | –
4 | O=C(CSc1nnc(-c2ccc(Cl)cc2)n1-c1ccc(Cl)cc1)N/N=C/c1ccco1 | 2.06 µM [rising, full curve, poor fit] | –
5 | Cc1ccc(NC(=O)CNc2ccccc2CN(C)C2CCCCC2)cc1 | 25.1 µM [falling, partial curve, poor fit] | –
6 | O=C1CC(N(O)c2ccccc2)C(=O)N1c1ccc(Cl)c(Cl)c1 (stereo not drawn) | 0.282 µM [falling, full curve, poor fit] | –
7 | O=C(CCC(=O)c1ccccc1)NCCc1c[nH]c2ccccc12 | 20.6 µM [rising, partial curve, poor fit] | –
8 | N#Cc1c(NC(=O)c2cc(C3CC3)on2)sc2c1CCC2 | 2.51 µM [rising, full curve, poor fit] | –
9 | CCOC(=O)c1cc2n(c1N)-c1ccccc1C2=O | 4.61 µM [rising, partial curve] | –
10 | COc1ccc(CCn2c(C)nc3c(c(=O)c4ccccc4n3C)c2=O)cc1 | 8.91 µM [falling, partial curve] | –
11 | CC(C)(C)NC(=O)CSc1nc2ccc(Nc3nc(N4CCOCC4)nc(N4CCOCC4)n3)cc2s1 | 8.91 µM [falling, partial curve, poor fit] | –
12 | c1ccc(CSc2nnnn2-c2ccc3c(c2)OCCO3)nc1 | 2.51 µM [rising, single point] | –
13 | CCC(=O)Nc1nc2ccc([N+](=O)[O-])cc2s1 | 0.1 µM [rising, full curve, poor fit] | –
14 | CCOC(=O)c1c(O)cc(C)[nH]c1=O | 5.62 µM [falling, partial curve, poor fit] | –
15 | COc1ccc(-c2nnc(Sc3nc4ccccc4o3)c3ccccc23)cc1 | 35.5 µM [rising, single point] | –
16 | O=C1C=C(c2ccc(Cl)cc2)C(=O)N1Nc1ccccc1 | 1.84 µM [falling, full curve] | –
17 | COc1cc2c(CCNC(C)=O)c[nH]c2cc1Cl | 16.4 µM [rising, partial curve, poor fit] | –
18 | Nc1cc(N)nc(SCC(=O)N2CCc3ccccc32)n1 | 3.66 µM [falling, full curve, poor fit] | –
19 | Cc1ccccc1-c1nc2ccccc2[nH]1 | 2.31 µM [falling, full curve] | –
20 | CSCCC(NS(=O)(=O)c1cccc(C(F)(F)F)c1)C(=O)N(C)CCOc1ccc(Cl)cc1 (stereo not drawn) | 25.9 µM [falling, partial curve, poor fit] | –
21 | CCOc1cc(/C=C2\SC(=NC)N(C)C2=O)c(Br)cc1OC(C)=O | 4.47 µM [falling, partial curve, poor fit] | –

Records 9 to 10, quoted:
Row | SMILES | AC50 [1] | AC50 (measured here: IkBa-CBG green luminescence)
9 | CCOC(=O)c1cc2n(c1N)-c1ccccc1C2=O | 4.61 µM [rising, partial curve] | –
10 | COc1ccc(CCn2c(C)nc3c(c(=O)c4ccccc4n3C)c2=O)cc1 | 8.91 µM [falling, partial curve] | –

(cont.)

Row | SMILES | AC50 [1] | AC50 (measured here: IkBa-CBG green luminescence)
22 | COc1ccccc1NC(=O)C(=O)NCC1COc2ccccc2O1 (stereo not drawn) | 11.6 µM [falling, partial curve] | –
23 | COc1ccc(C2c3[nH]c4ccccc4c3CCN2Cc2ccoc2)c(F)c1 (stereo not drawn) | 15.8 µM [falling, partial curve, poor fit] | –
24 | Cc1ccc(/C=N/NC(=O)CN2CCN(Cc3ccccc3)CC2)s1 | 0.501 µM [rising, partial curve, poor fit] | –
25 | Cc1csc(NC(=O)CSc2nc3ccccc3s2)n1 | 8.91 µM [falling, partial curve, poor fit] | –
26 | Cc1ccc(/C=N/NC(=O)Nc2ccccc2)o1 | 13 µM [falling, partial curve] | –
27 | COc1cc(/C=N/NC(=O)Cc2c[nH]c3ccccc23)cc(OC)c1OC | 35.5 µM [falling, single point] | –
28 | COc1ccc(OCc2cccc(C(=O)O)c2)cc1 | 1.03 µM [falling, partial curve] | –
29 | CCOc1ccccc1C1CC(=O)Nc2cc3c(cc21)OCCO3 (stereo not drawn) | 10 µM [rising, partial curve] | 8.91 µM [falling, partial curve]
30 | N#C/C(=C/c1ccc(N2CCCCC2)o1)C(=O)Nc1ccc2ccccc2c1 | 32.6 µM [falling, single point] | –
31 | Cc1ccc(-c2csc(NC(=S)NC(=O)c3ccco3)n2)cc1 | 0.731 µM [rising, full curve, poor fit] | –
32 | Cc1c([C@H]2[C@@H](CC#N)C2(C)C)c2ccccc2n1C | 0.461 µM [rising, full curve, poor fit] | –
33 | COc1cc(NC(=O)Nc2ccccc2OC)c(OC)cc1NC(=O)CN1CCCCC1 | 0.112 µM [falling, full curve, poor fit] | –
34 | C=CCn1c(SCC(=O)Nc2ccccc2OC)nnc1-c1ccccn1 | 2.91 µM [falling, partial curve, poor fit] | –
35 | CC(C)(C)c1csc(CS(=O)(=O)c2ccccn2)n1 | 7.08 µM [falling, partial curve, poor fit] | –
36 | CSCC[C@H](NC(=O)OC(C)(C)C)C(=O)N/N=C/c1c(C)[nH]c(=O)[nH]c1=O | 0.366 µM [rising, full curve, poor fit] | –
37 | Cc1ccc(NC(=O)c2ccc3ccccc3n2)nc1 | 16.4 µM [falling, single point] | –
38 | CN(C)S(=O)(=O)c1ccc(C(=O)OCC(=O)N2CC3(C)CC2CC(C)(C)C3)cc1 (stereo not drawn) | 0.731 µM [falling, partial curve, poor fit] | –
39 | CCC1=NN(C(=O)c2ccc(Br)cc2)C(O)(c2ccc(C)cc2)C1 (stereo not drawn) | 11.6 µM [falling, partial curve, poor fit] | –
40 | CCOC(=O)c1cnc(SCc2ccc(C)cc2)nc1N | 29.1 µM [falling, single point] | –
41 | O=C(NC(=S)Nc1ccccc1Cl)c1csnn1 | 3.16 µM [falling, full curve] | –
42 | CC(=O)Nc1ccc2c(COC(=O)[C@@H](NS(=O)(=O)c3ccc(C)cc3)C(C)C)cc(=O)oc2c1 | 0.116 µM [rising, full curve, poor fit] | –
